Measurements published in PubChem BioAssay AID2685 (National Center for Advancing Translational Sciences (NCATS), 2010).
“And” between values parts separate entries of the source, which are not always exact repeats. Equal values may be shown once. This is one part of the list. Further columns of the screen follow, without active or inactive calls. The list favours compounds with an active or inconclusive main result. Words in brackets tell the shape of the fitted curve; partial curves, single points and poor fits give uncertain potencies.

Experiment: qHTS Assay for Lipid Storage Modulators in Drosophila S3 Cells;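 as to cell number change: cells counted by Cell Tracker Red CMTPX staining in the red channel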
Details: BODIPY lipid droplet fluorescence, 18-24 h; for cell number change: measured here: cell count max response, cells fed with added oleic acid
How it was run: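 Drosophila S3 cells loaded with oleic acid (400 uM, as added) and compounds at several concentrations; lipid droplets imaged by 488-nm laser-scanning cytometry, 500–530 nm intensity and object ratio to cell channel. Percent activity normalized to 20 uM Triacsin C.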

[1] = measured here: lipid fluorescence (Fed channel) AC50, cells fed with added oleic acid
[2] = measured here: cell number channel AC50, cells fed with added oleic acid

In the case of Cc1ccc(-c2cc(C(=O)NCc3cn(C)nc3C)c3cc(Br)ccc3n2)cc1, the cell number change is reported as 5.68% and the AC50 [1] is reported as 0.0731 µM [rising, full curve].
Compound N/C(=N\OC(=O)COc1ccccc1)c1ccccn1 has a cell number change of 10.6%.
In the case of COc1ccc(-c2nc(Cc3ccc(Cl)cc3)no2)cc1OC, the cell number change is reported as -22%.
For CN(C)CCN(C(=O)CCc1ccccc1)c1nc2c(F)cc(F)cc2s1, the cell number change was -9.49% and the AC50 [2] was 6.51 µM [falling, single point].
In the case of CC(=O)c1c(C)[nH]c(C(=O)OCC(=O)NCc2ccc3c(c2)OCO3)c1C, the cell number change is reported as -17.5% and the AC50 [1] is reported as 0.0259 µM [rising, full curve, poor fit].
In the case of COc1ccccc1CC(=O)NCC(c1ccco1)N1CCCCC1 (centres undefined), the cell number change is reported as -21.4% and the AC50 [1] is reported as 29.1 µM [rising, single point].
With CN(c1ccccc1)S(=O)(=O)c1cccc(NC(=O)Cc2n[nH]c(=O)c3ccccc23)c1 the cell number change was -12.6% and the AC50 [1] was 1.46 µM [rising, partial curve].
CCOC(=O)c1ccc(N(CC(=O)NCC2CCCO2)C(=O)CCC(=O)Nc2cc(C)on2)cc1 (centres undefined) showed a cell number change of 21.7%.
For Cc1cc(Br)c(S(=O)(=O)NCCN2CCOCC2)cc1C, the cell number change was 13.4%, the AC50 [2] was 0.731 µM [falling, full curve, poor fit] and the AC50 [1] was 0.731 µM [falling, full curve].
In the case of CC(C)C(c1nnnn1C1CCCC1)N1CCN(c2ccccc2F)CC1 (centres undefined), the cell number change is reported as 22.4%, the AC50 [2] is reported as 0.58 µM [rising, full curve, poor fit] and the AC50 [1] is reported as 5.17 µM [rising, full curve].
In the case of CC(C)OC(=O)CCCN1C(=O)c2ccc(N)cc2C1=O, the cell number change is reported as -8.09% and the AC50 [1] is reported as 7.31 µM [falling, single point].
In the case of COC(=O)c1[nH]c(C)c(/C(O)=C2\C(=O)C(=O)N(CCN(C)C)C2c2cccs2)c1C (centres undefined), the cell number change is reported as 0.996% and the AC50 [2] is reported as 3.66 µM [falling, single point].
In the case of CCn1cnc2cc(NCc3ccc(C)cc3)ccc21, the cell number change is reported as -13.8% and the AC50 [1] is reported as 29.1 µM [rising, single point].
For Cn1cnc(S(=O)(=O)N2CCN(C(c3ccc(F)cc3)c3ccc(F)cc3)CC2)c1, the cell number change was 4.89% and the AC50 [1] was 0.00461 µM [falling, full curve, poor fit].
For COc1cccc(NC(=O)N2CCCC(C(=O)Nc3ccccc3OC)C2)c1 (centres undefined), the cell number change was -18.3% and the AC50 [1] was 29.1 µM [falling, single point].
For CC1CN(C(=O)COC(=O)c2ccc(N(C)C)cc2)CC(C)O1 (centres undefined), the cell number change was 85.8%.
With NC(=O)c1cc(S(=O)(=O)N2CCOCC2)cs1 the cell number change was -10.6%, the AC50 [2] was 1.16 µM [rising, full curve] and the AC50 [1] was 8.2 µM [rising, partial curve, poor fit].
With COc1cccc(OC)c1C(=O)NNC(=O)c1ccccc1-n1cccc1 the cell number change was -17.4% and the AC50 [1] was 0.103 µM [falling, full curve, poor fit].
With O=C(CSc1ncnc2c1cnn2-c1ccc(F)cc1)NCC1CCCO1 (centres undefined) the cell number change was -26.6%.
In the case of CC1CN(C(=O)COC(=O)c2cc([N+](=O)[O-])ccc2Cl)CC(C)O1 (centres undefined), the cell number change is reported as 51%, the AC50 [2] is reported as 29.1 µM [rising, single point] and the AC50 [1] is reported as 16.4 µM [rising, single point].
With CCOC(=O)N1CCC(Nc2c(NCCCN3CCN(c4ccc(OC)cc4)CC3)c(=O)c2=O)CC1 the cell number change was 2.81% and the AC50 [1] was 6.51 µM [falling, single point].
With CCN1C(=NCCc2ccccn2)N[C@@H](c2cccc(F)c2)C(C(=O)OC)=C1C the cell number change was -5.09% and 14.4% and the AC50 [1] was 23.1 µM [rising, single point] and 29.1 µM [rising, single point].
In the case of [N-]=[N+]=CC(=O)CC(c1ccccc1)N1C(=O)c2ccccc2C1=O (centres undefined), the cell number change is reported as -179%, the AC50 [2] is reported as 0.366 µM [falling, full curve] and the AC50 [1] is reported as 29.1 µM [falling, single point].
With CCNC(=O)C1CC(=O)N(Cc2ccc3c(c2)OCO3)C(=Nc2ccc(F)cc2)S1 (centres undefined) the AC50 [2] was 0.82 µM [rising, single point].
With COc1cccc(NC(=O)N2CCCC2C(=O)NC23CC4CC(CC(C4)C2)C3)c1 (centres undefined) the cell number change was 7.69% and the AC50 [2] was 1.64 µM [rising, partial curve, poor fit].
In the case of CCOC(=O)C1CCN(C(C(=O)NC2CCCC2)c2ccc(C)cc2)CC1 (centres undefined), the cell number change is reported as -43% and the AC50 [2] is reported as 16.4 µM [falling, partial curve, poor fit].
In the case of Cc1cc(C)c(S(=O)(=O)NCCSCc2ccco2)c(C)c1, the cell number change is reported as -2.75% and the AC50 [1] is reported as 0.164 µM [rising, full curve, poor fit].
With Cc1cccc(NC(=O)C2CCN(c3nc(C)cc(C)n3)CC2)c1 the AC50 [2] was 1.46 µM [rising, partial curve].
With Cc1[nH][nH]c(=O)c1C(c1c(C)[nH][nH]c1=O)c1cn(Cc2ccc(Cl)c(Cl)c2)c2ccccc12 the cell number change was -3.81% and the AC50 [1] was 16.4 µM [falling, single point].
For Cc1ccc(CCNC(=O)CCNS(=O)(=O)c2ccc3c(c2)c(=O)n(C)c(=O)n3C)cc1, the cell number change was -13.2% and the AC50 [2] was 0.13 µM [rising, partial curve, poor fit].
With COc1cc(F)c(S(=O)(=O)N2CCOc3ccccc32)cc1OC the cell number change was 9.6% and the AC50 [1] was 5.17 µM [rising, single point].
For COc1ccc(-c2noc(CNS(=O)(=O)c3ccc(NC(C)=O)cc3)n2)cc1OC, the cell number change was -5.38%.
In the case of C=CCC1(C#N)C(=S)NC2=C(C(=O)CC(C)(C)C2)C1c1ccc(Br)cc1 (centres undefined), the cell number change is reported as 58.1% and the AC50 [2] is reported as 20.6 µM [rising, partial curve, poor fit].
For CC(C)[C@H](NC(=O)[C@@H]1CSC2c3ccccc3C(=O)N21)C(=O)NCc1ccco1 (some centres undefined), the cell number change was 11.8% and the AC50 [1] was 29.1 µM [rising, partial curve, poor fit].
Compound FC(F)(F)c1ccccc1NC(=S)Nc1cccc(Cl)c1 has a cell number change of -46.7%.
With CCOC(=O)CSc1nnc(COc2ccc3ccccc3c2)o1 the cell number change was 6.32%.
Cc1cc(Br)ccc1SCC(=O)OCC(=O)NC1CCCC1 showed a cell number change of -14.4%.
With CCc1ccc(OCC(=O)Nc2ccc3oc(=O)ccc3c2)cc1 the cell number change was -28.9%.
For CCCCN(C(=O)c1ccc(C)o1)c1c(N)n(CCCC)c(=O)[nH]c1=O, the cell number change was -5.6%.
With CCCCCCCN1C(Nc2ccccc2)=NC[C@@H]1CC(C)C the cell number change was -4.79%.
With CCOc1cc(N2CCOCC2)c(OCC)cc1NC(=O)c1ccccc1 the cell number change was 46.1%, the AC50 [2] was 0.731 µM [falling, single point] and the AC50 [1] was 20.6 µM [rising, partial curve].
COc1cccc(CN2CCN(CC(=O)NCCc3ccccc3)CC2)c1 showed a cell number change of -1.1%.
In the case of COc1cc(/C=C2\NC(=S)N(C)C2=O)ccc1OCc1ccccc1F, the cell number change is reported as 3.6%.
With CCOC(=O)/C(=N\Nc1ccc(Br)cc1)N1CCN(c2ccccc2OC)CC1 the cell number change was 36.2%, the AC50 [2] was 32.6 µM [rising, single point] and the AC50 [1] was 25.9 µM [rising, single point].
In the case of COC(=O)C1CCN(C(=O)c2c(-c3ccccc3Cl)noc2C)CC1, the AC50 [1] is reported as 0.00461 µM [falling, full curve, poor fit].
In the case of Cc1ccc2oc(=O)c3cnn(CC(=O)N4CCCc5ccccc54)c3c2c1, the AC50 [2] is reported as 0.092 µM [rising, full curve] and the AC50 [1] is reported as 0.103 µM [rising, full curve].
For Cc1ccc(NC(=O)CS(=O)CC(=O)N(CC(=O)NC2CCCC2)c2cccc(C)c2C)cc1 (centres undefined), the cell number change was -7.5% and the AC50 [1] was 29.1 µM [rising, single point].
With COc1cc(C(=O)N2CCN(c3ccccc3O)CC2)ccc1OCC(=O)N1CCOCC1 the cell number change was -4.92% and the AC50 [1] was 2.31 µM [rising, partial curve].
In the case of CCOc1ccc(C2=NNC(c3cccs3)=Nc3ccc(OCC)cc32)cc1, the cell number change is reported as -76.7%, the AC50 [2] is reported as 29.1 µM [falling, single point] and the AC50 [1] is reported as 14.6 µM [falling, partial curve].
In the case of CSc1nc(C)cc(Oc2ccc(OCC(N)=O)nn2)n1, the cell number change is reported as -28.6%, the AC50 [2] is reported as 1.3 µM [falling, full curve, poor fit] and the AC50 [1] is reported as 13 µM [falling, partial curve].
In the case of COc1ccc(C(=O)Nc2cccnc2)cc1, the cell number change is reported as 42.4%.
With C/C(=N\NC(=O)CSc1nc2ccccc2o1)c1ccc(O)cc1 the cell number change was 48.3%, the AC50 [2] was 29.1 µM [rising, single point] and the AC50 [1] was 3.26 µM [rising, partial curve, poor fit].
For O=C(CSc1ccccc1C(=O)O)c1ccc([N+](=O)[O-])cc1, the cell number change was 29.3%, the AC50 [2] was 0.517 µM [rising, full curve] and the AC50 [1] was 0.58 µM [rising, full curve].
Compound CCC(Oc1cc(Cl)ccc1Cl)C(=O)N1CCCN(C)CC1 (centres undefined) has a cell number change of 18.7%.
With Cc1cccc(C(=O)O/N=C/c2c(Cl)n(C)c3ccccc23)c1 the cell number change was 47.3%, the AC50 [2] was 20.6 µM [rising, single point] and the AC50 [1] was 23.1 µM [rising, single point].
In the case of O=C(Nc1oc2ccccc2c(=O)c1-c1ccc(Br)cc1)c1ccco1, the cell number change is reported as -76.6% and the AC50 [2] is reported as 20.6 µM [falling, single point].
In the case of NS(=O)(=O)c1ccc(Nc2c([N+](=O)[O-])cncc2[N+](=O)[O-])cc1, the cell number change is reported as 8.76% and the AC50 [1] is reported as 0.651 µM [falling, full curve].
With CCCCC[n+]1ccn(C2=C([O-])c3ccccc3C(=O)/C2=N\S(=O)(=O)c2ccccc2)c1 the cell number change was -11.2% and the AC50 [1] was 4.61 µM [falling, full curve].
With COc1ccccc1NC(=O)Cn1cnc2c(cnn2-c2ccccc2)c1=O the cell number change was -35%, the AC50 [2] was 32.6 µM [falling, single point] and the AC50 [1] was 14.6 µM [falling, partial curve].
In the case of O=C1CCCc2c1cc(C(=O)Nc1ccc(Br)cn1)c(=O)n2-c1ccccc1, the cell number change is reported as 78.9% and the AC50 [2] is reported as 18.4 µM [rising, single point].
